Results published in publication PMC8777539.
No constants are given. Whether binding was seen depends on the method and setting. Binding seen in cells or lysates may run through a third protein. Some results given as binding are weak or reduced against the parent protein; the word gives no strength.

By UniProt entry, the sequences of proteins in these tests, tags left out.
UniProt Q9NYD6: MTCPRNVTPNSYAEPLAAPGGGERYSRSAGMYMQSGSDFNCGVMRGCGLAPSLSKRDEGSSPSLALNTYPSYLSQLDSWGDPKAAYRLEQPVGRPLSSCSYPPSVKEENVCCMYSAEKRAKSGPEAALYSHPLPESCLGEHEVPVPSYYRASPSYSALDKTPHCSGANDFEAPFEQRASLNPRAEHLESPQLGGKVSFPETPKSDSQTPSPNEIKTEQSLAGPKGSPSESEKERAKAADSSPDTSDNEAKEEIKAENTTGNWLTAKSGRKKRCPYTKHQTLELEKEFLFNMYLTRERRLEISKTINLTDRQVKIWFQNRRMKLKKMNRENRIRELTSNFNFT

Target: T1, Slug (human (endogenous in A375 and A2058)) (UniProt O43623)
T1 sequence: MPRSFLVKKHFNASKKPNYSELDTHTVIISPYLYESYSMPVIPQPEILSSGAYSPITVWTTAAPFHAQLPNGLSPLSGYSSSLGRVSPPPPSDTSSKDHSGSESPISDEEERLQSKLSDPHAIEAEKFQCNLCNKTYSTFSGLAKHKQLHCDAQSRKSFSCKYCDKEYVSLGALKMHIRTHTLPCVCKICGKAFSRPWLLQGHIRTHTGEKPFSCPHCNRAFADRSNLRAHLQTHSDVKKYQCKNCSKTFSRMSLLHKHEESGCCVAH
Test: co-IP; RIPA lysates of HOXC10-overexpressed A375 and A2058 cells; precipitated with anti-HOXC10 or anti-Slug antibody and Protein A/G Plus-Agarose; Western blot for HOXC10 and Slug

- binding: binds
Substance: Homeobox C10 (HOXC10) (from UniProt Q9NYD6 1-342)
